Data published in publication PMC9882672.
Results are given in words; binding and its absence hold for the method and conditions named. Binding seen in cells or lysates may run through a third protein. Some entries that bind do so weakly or less than the wild type.

Biological target: T1, hephaestin (human (endogenous in iPSC-derived ECs)) (UniProt Q9BQS7)
T1 sequence: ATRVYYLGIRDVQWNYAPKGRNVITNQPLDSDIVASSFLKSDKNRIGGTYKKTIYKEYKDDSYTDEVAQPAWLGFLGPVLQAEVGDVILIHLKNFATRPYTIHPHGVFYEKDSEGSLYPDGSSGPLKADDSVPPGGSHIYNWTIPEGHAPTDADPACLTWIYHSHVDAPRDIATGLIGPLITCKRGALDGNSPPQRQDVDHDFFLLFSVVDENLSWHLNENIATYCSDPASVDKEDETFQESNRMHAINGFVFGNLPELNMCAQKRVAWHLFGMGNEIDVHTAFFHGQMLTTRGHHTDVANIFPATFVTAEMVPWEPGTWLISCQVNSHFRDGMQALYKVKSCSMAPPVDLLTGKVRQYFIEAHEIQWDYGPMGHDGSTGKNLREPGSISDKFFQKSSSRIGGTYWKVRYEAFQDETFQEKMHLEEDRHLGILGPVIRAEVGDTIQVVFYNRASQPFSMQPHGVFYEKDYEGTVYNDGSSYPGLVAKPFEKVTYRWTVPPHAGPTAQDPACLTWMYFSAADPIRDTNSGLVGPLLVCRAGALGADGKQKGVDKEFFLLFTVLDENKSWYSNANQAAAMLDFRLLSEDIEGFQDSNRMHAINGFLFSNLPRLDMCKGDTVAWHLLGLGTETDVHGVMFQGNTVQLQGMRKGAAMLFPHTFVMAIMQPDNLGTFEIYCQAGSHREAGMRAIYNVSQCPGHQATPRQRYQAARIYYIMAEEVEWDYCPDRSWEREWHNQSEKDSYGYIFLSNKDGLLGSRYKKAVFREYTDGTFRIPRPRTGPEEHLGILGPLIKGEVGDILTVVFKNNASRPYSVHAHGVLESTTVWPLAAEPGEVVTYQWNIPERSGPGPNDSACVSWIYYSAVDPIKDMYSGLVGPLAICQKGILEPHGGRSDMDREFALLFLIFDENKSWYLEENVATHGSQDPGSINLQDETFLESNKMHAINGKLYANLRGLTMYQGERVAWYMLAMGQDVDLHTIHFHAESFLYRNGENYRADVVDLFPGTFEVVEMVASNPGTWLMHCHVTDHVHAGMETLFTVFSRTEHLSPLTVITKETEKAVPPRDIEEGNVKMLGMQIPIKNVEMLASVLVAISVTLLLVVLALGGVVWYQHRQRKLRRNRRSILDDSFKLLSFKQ
Test: co-IP; iPSC-derived ECs, lysed; Protein G magnetic beads with anti-Heph antibody; endogenous Fpn with endogenous Heph

- binding: binds
B1: ferroportin (protein, UniProt Q9NP59 1-571)
chain: MTRAGDHNRQRGCCGSLADYLTSAKFLLYLGHSLSTWGDRMWHFAVSVFLVELYGNSLLLTAVYGLVVAGSVLVLGAIIGDWVDKNARLKVAQTSLVVQNVSVILCGIILMMVFLHKHELLTMYHGWVLTSCYILIITIANIANLASTATAITIQRDWIVVVAGEDRSKLANMNATIRRIDQLTNILAPMAVGQIMTFGSPVIGCGFISGWNLVSMCVEYVLLWKVYQKTPALAVKAGLKEEETELKQLNLHKDTEPKPLEGTHLMGVKDSNIHELEHEQEPTCASQMAEPFRTFRDGWVSYYNQPVFLAGMGLAFLYMTVLGFDCITTGYAYTQGLSGSILSILMGASAITGIMGTVAFTWLRRKCGLVRTGLISGLAQLSCLILCVISVFMPGSPLDLSVSPFEDIRSRFIQGESITPTKIPEITTEIYMSNGSNSANIVPETSPESVPIISVSLLFAGVIAARIGLWSFDLTVTQLLQENVIESERGIINGVQNSMNYLLDLLHFIMVILAPNPEAFGLLVLISVSFVAMGHIMYFRFAQNTLGNKLFACGPDAKEVRKENQANTSVV
